A short description of the data set: peptide made by a vendor (Fmoc solid-phase peptide synthesis; FmocLeu-Wang resin). The following applies: whole synthesis, analytical RP-HPLC.

Where no end group is shown, it is not given here.

Consider DVSTSQAVLPDDFPRYPVGKFFKFDTWRQSAGRL, for which the “final HPLC purity” value was over 99%.

These data come from US20030166561A1 (priority 1999, published 2003).
